Experimental data reported in PubChem BioAssay AID2685 (National Center for Advancing Translational Sciences (NCATS), 2010).
The other results are listed elsewhere or left out. These are further read-outs of the screen, such as a control signal, another cell line or another target. No call is given for them. The list favours compounds with an active or inconclusive main result. Words in brackets tell the shape of the fitted curve; partial curves, single points and poor fits give uncertain potencies.

Assay: qHTS Assay for Lipid Storage Modulators in Drosophila S3 Cells;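 on cell number change: cells counted by Cell Tracker Red CMTPX staining in the red channel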
Details: BODIPY lipid droplet fluorescence, 18-24 h; for cell number change: measured here: cell count max response, cells fed with added oleic acid
Outline: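 Drosophila S3 cells got compounds at several concentrations plus oleic acid (400 uM solution). Laser-scanning cytometry with 488 nm excitation read lipid droplets at 500-530 nm and cells at 575-640 nm. Percent activity was relative to 20 uM Triacsin C.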

[1] = measured here: lipid fluorescence (Fed channel) AC50, cells fed with added oleic acid
[2] = measured here: cell number channel AC50, cells fed with added oleic acid

Row | SMILES | cell number change [%] | AC50 [1] | AC50 [2]
1 | Cn1c(SCC(=O)NNC(=O)c2ccccc2)nnc1C(F)(F)F | -20.6 | 14.6 µM [rising, partial curve] | –
2 | COc1ccc([N+](=O)[O-])cc1NC(=O)CCN1CCN(c2ccccc2OC)CC1 | -3.69 | – | 6.51 µM [rising, single point]
3 | C/C(=N\NC(=O)c1ccc(Br)cc1)c1cccc(NC(=O)c2cccnc2)c1 | -15.4 | 16.4 µM [rising, single point] | –
4 | Cc1ccccc1OCCC(=O)Nc1ccc2c(C)cc(=O)oc2c1 | 32 | 11.6 µM [rising, partial curve] | 29.1 µM [rising, single point]
5 | O=C(COC(=O)c1ccc(F)c(S(=O)(=O)N2CCOCC2)c1)Nc1ccc2c(c1)OCO2 | 45 | – | 25.9 µM [rising, single point]
6 | O=C(Nc1nc2nccc(-c3ccccc3)n2n1)c1ccc(F)cc1 | -26.4 | – | –
7 | O=C1C=C(c2cccs2)CC(c2cccs2)C1n1cnc([N+](=O)[O-])c1 (stereo not drawn) | -7.95 | – | –
8 | CC1(C)C(=O)Nc2ccccc2N1C(=O)COC(=O)CSc1ccc(Cl)cc1 | 10.9 | 6.51 µM [rising, single point] | –
9 | COc1ccc(-c2nnnn2C)cc1S(=O)(=O)Nc1ccc(C)cc1C | – | 29.1 µM [falling, single point] | –
10 | O=C(CSc1cccc[n+]1[O-])c1ccc(-c2ccccc2)cc1 | 30.7 | – | 29.1 µM [rising, single point]
11 | COc1ccc(-c2nc3c4ccccc4[nH]c(=O)n3n2)cc1 | -14.4 | 0.13 µM [falling, full curve, poor fit] | –
12 | Cc1ccc2c(C)[nH]c(=O)cc2c1 | -26.4 | 4.11 µM [falling, single point] | 0.82 µM [falling, full curve, poor fit]
13 | COc1ccc(Cl)cc1NC(=O)c1nc2nc(C)cc(C(F)F)n2n1 | 9.56 | 2.91 µM [rising, single point] | –
14 | Clc1ccc(-c2csc(NNC3=NCCCCC3)n2)cc1 | -46 | 23.1 µM [falling, partial curve, poor fit] | 14.6 µM [falling, single point]
15 | Cc1ccc(S(=O)(=O)NC(CCc2ccccc2)CC(=O)C(C)(C)C)cc1 (stereo not drawn) | 15.5 | 8.2 µM [rising, partial curve] | –
16 | COc1ccccc1OCCNC(=O)CNC(=O)c1ccc(Cl)c(Cl)c1 | 26.1 | – | –
17 | Cc1ccc(-c2nc3c(c(SCC(=O)N4CCOCC4)n2)Cc2c(CO)cnc(C)c2O3)cc1 | -39.5 | – | 11.6 µM [falling, partial curve]
18 | CN1CCN(/N=C2/C(=O)Nc3ccc([N+](=O)[O-])cc32)CC1 | -28.6 | 2.31 µM [falling, partial curve, poor fit] | –
19 | O=C(Nc1ccc(Cl)cc1)c1cc2nc(-c3ccco3)cc(C(F)(F)F)n2n1 | -24.9 | – | 0.259 µM [falling, full curve, poor fit]
20 | CC1CN(C(=O)C(C)N2C(=O)c3ccccc3C2=O)CC(C)O1 (stereo not drawn) | -3.2 | – | –

Part of the list above in order of number of heavy atoms, low to high:
Row | SMILES | cell number change [%] | AC50 [1] | AC50 [2]
18 | CN1CCN(/N=C2/C(=O)Nc3ccc([N+](=O)[O-])cc32)CC1 | -28.6 | 2.31 µM [falling, partial curve, poor fit] | –
10 | O=C(CSc1cccc[n+]1[O-])c1ccc(-c2ccccc2)cc1 | 30.7 | – | 29.1 µM [rising, single point]
13 | COc1ccc(Cl)cc1NC(=O)c1nc2nc(C)cc(C(F)F)n2n1 | 9.56 | 2.91 µM [rising, single point] | –

Further records follow.

Row | SMILES | cell number change [%] | AC50 [1] | AC50 [2]
21 | CC(Sc1nnc(CNC(=O)c2ccccc2F)n1C)C(=O)Nc1nccs1 (stereo not drawn) | 21.4 | – | –
22 | COc1ccc(-c2csc(NC(=O)CSc3nc4ccccc4c(=O)[nH]3)n2)cc1 | 87.4 | 29.1 µM [falling, partial curve, poor fit] | 29.1 µM [rising, single point]
23 | O=C(Cc1cccc2ccccc12)N1CCCc2ccccc21 | 16.1 | 29.1 µM [rising, single point] | –
24 | CCC(C)(C)NC(=O)C(c1ccccc1Cl)N(C(=O)CCC(=O)Nc1cc(C)on1)C(C)(C)C (stereo not drawn) | 2.61 | – | –
25 | COc1ccccc1-c1nnc(C2CCN(S(=O)(=O)c3ccc([N+](=O)[O-])cc3)CC2)o1 | -59.3 | 20.6 µM [falling, single point] | 32.6 µM [falling, partial curve, poor fit]
26 | CCc1ccc(OS(=O)(=O)c2cn(C)c(=O)n(C)c2=O)cc1 | -16.8 | – | 0.164 µM [falling, full curve, poor fit]
27 | CCc1ccccc1NC(=O)CN(C)C(=O)COc1ccc(C)nc1[N+](=O)[O-] | 7.6 | 18.4 µM [rising, single point] | –
28 | O=S(=O)(c1ccc(F)cc1)N1CCCC1 | 18.6 | 0.58 µM [rising, single point] | –
29 | CCOc1ccccc1/C=N/OCC(=O)NCc1ccc(F)cc1 | 30.4 | – | 23.1 µM [rising, single point]
30 | CCN(CC(=O)NCc1cccs1)C(=O)c1ccc(S(=O)(=O)Nc2ccccc2F)cc1 | 3.61 | – | –
31 | CCCn1c(SCC(=O)Nc2ccc3c(c2)OCO3)nc2c1c(=O)n(C)c(=O)n2C | -9.83 | 0.00461 µM [rising, full curve, poor fit] | –
32 | CCc1ccc(NC(=O)CCc2c(C)nn(-c3ccc(N4CCCCC4)nn3)c2C)cc1 | -1.22 | – | 0.00517 µM [rising, full curve, poor fit]
33 | Nc1nc2ccccc2n1CCOc1ccc(Br)cc1 | -50.3 | 0.58 µM [falling, single point] | 10.3 µM [falling, partial curve]
34 | CSc1nnc(N(CCC#N)CCC#N)s1 | 3.14 | 20.6 µM [rising, single point] | –
35 | Cc1cc(C)c(C(=O)O)c(Cl)n1 | 36.7 | – | 1.84 µM [rising, single point]
36 | C#CCOCCOCCOCCNc1nc(N2CCN(C(=O)[C@H](Cc3cc4ccccc4[nH]3)n3cc([C@@H](N)CC(C)C)nn3)CC2)nc(N2CCN(C(=O)[C@H](Cc3cc4ccccc4[nH]3)n3cc([C@@H](N)CC(C)C)nn3)CC2)n1 | -40.2 | – | 29.1 µM [falling, single point]
37 | Cc1nc(Cc2nnc(SCc3nc(N)nc(Nc4ccccc4C)n3)o2)cs1 | -7.96 | 0.164 µM [rising, full curve, poor fit] | –
38 | COc1ccc(NC(=O)C2CCN(c3nc(C)nc4c3CCC4)CC2)cc1 | -4.53 | – | 0.116 µM [falling, single point]
39 | CCOc1ccc(/C=N/NC(=O)c2[nH]c3ccc(C)cc3c2C)cc1 | 16.2 | 29.1 µM [rising, single point] | –
40 | CCN(CC)S(=O)(=O)c1cccc(-c2cn3cccnc3n2)c1 | 30 | 3.66 µM [rising, partial curve] | 16.4 µM [rising, partial curve]

Row | SMILES | cell number change [%] | AC50 [1] | AC50 [2]
41 | O=C(/C=C/c1ccccn1)c1ccc(Br)cc1O | 3.13 | 0.517 µM [rising, full curve, poor fit] | –
42 | COc1ccc(Br)cc1CNC(=O)CN1C(=O)C(c2ccccc2)Oc2cccnc21 (stereo not drawn) | -12.8 | 0.82 µM [falling, full curve] | –
43 | CCCCN(C)CCCNC(=O)CC1Oc2ccccc2NC1=O (stereo not drawn) | -10.2 | 2.59 µM [falling, partial curve] | –
44 | CSc1nsc(/C=C/Nc2ccc(F)cc2)c1C#N | – | 4.11 µM [rising, partial curve, poor fit] | 1.64 µM [rising, partial curve]
45 | Cc1ccc(OCCNC(=O)c2ccc3ccccc3n2)cc1 | -2.63 | 3.16 µM [falling, partial curve] | –
46 | O=C(CN1CCSCC1)N/N=C/c1ccc(F)c(F)c1 | 3.62 | – | –
47 | O=C(CCCC(=O)N(CC(=O)NC1CCCCC1)Cc1ccc2c(c1)OCO2)Nc1ccccn1 | 59.1 | 11.6 µM [rising, partial curve] | 10.3 µM [rising, partial curve]
48 | CCOc1ccc(NC(=O)C2CCCN(S(=O)(=O)c3c(C)nn(C)c3C)C2)cc1 (stereo not drawn) | 33.7 | – | 16.4 µM [rising, single point]
49 | Cc1ccc(C#N)c(SCc2ccccc2F)n1 | 17.1 | 2.91 µM [rising, partial curve] | –
50 | CCC(=O)NNc1ncnc2ccccc12 | 16.2 | 0.206 µM [rising, partial curve, poor fit] | –
51 | Cc1ccc(S(=O)(=O)N(C(=O)c2ccncc2)c2ccc(OC(=O)c3ccncc3)c3ccccc23)c(C)c1 | 36.4 | – | 29.1 µM [rising, single point]
52 | CS(=O)(=O)C1=NN2C(=N)/C(=C\c3ccc(OCCOc4ccccc4)cc3)C(=O)N=C2S1 | 6.34 | 1.84 µM [rising, single point] | –
53 | CN(C)c1ccnc2sc3c(=O)n(Cc4ccccc4)cnc3c12 | -2.22 | 5.8 µM [rising, partial curve] | –
54 | O=C(CCN1C(=O)c2ccccc2C1=O)NCc1ccc(Cl)cc1 | 10.4 | 0.58 µM [rising, single point] | –
55 | C=C(C)CC(Nc1ccc(OC)cc1)c1ccco1 (stereo not drawn) | -2.79 | 3.66 µM [rising, single point] | –
56 | COc1ccc(CNC(=O)c2[nH]c(C)c(C(C)=O)c2C)cc1 | -5.71 | – | –
57 | O=C(Nc1ccc(-c2nc3ncccc3o2)cc1)c1ccco1 | 16.2 | – | 1.03 µM [rising, partial curve]
58 | Cc1cc(C)c2c(c1)/C(=c1/sc3n(c1=O)CN(c1ccccc1)CN=3)C(=O)N2 | 10.3 | 0.146 µM [rising, full curve, poor fit] | 0.092 µM [rising, full curve]
59 | Cc1c(Nc2c3ccccc3nc3ccccc23)c(=O)n(-c2ccccc2)n1C | -34.5 | 29.1 µM [falling, single point] | 32.6 µM [falling, single point]

Rewritten as tab-separated lines: entries from further up.
Row	SMILES	cell number change [%]	AC50 [1]	AC50 [2]
23	O=C(Cc1cccc2ccccc12)N1CCCc2ccccc21	16.1	29.1 µM [rising, single point]	–
28	O=S(=O)(c1ccc(F)cc1)N1CCCC1	18.6	0.58 µM [rising, single point]	–
47	O=C(CCCC(=O)N(CC(=O)NC1CCCCC1)Cc1ccc2c(c1)OCO2)Nc1ccccn1	59.1	11.6 µM [rising, partial curve]	10.3 µM [rising, partial curve]
